From PMC6925144, “A prospective compound screening contest identified broader inhibitors for Sirtuin 1” (Scientific Reports, 2019)
Whole data set: some 3,200 compounds, median “TSA(without NAD+) / Primary screening (TSA) / delta Tm (K)” near -0.07, cut for the highest 2% near 0.37. Some of the results follow.

By UniProt entry, the sequences of proteins in these tests, tags left out. Residues count along the entry.
UniProt Q96EB6, 2-747 limits assumed: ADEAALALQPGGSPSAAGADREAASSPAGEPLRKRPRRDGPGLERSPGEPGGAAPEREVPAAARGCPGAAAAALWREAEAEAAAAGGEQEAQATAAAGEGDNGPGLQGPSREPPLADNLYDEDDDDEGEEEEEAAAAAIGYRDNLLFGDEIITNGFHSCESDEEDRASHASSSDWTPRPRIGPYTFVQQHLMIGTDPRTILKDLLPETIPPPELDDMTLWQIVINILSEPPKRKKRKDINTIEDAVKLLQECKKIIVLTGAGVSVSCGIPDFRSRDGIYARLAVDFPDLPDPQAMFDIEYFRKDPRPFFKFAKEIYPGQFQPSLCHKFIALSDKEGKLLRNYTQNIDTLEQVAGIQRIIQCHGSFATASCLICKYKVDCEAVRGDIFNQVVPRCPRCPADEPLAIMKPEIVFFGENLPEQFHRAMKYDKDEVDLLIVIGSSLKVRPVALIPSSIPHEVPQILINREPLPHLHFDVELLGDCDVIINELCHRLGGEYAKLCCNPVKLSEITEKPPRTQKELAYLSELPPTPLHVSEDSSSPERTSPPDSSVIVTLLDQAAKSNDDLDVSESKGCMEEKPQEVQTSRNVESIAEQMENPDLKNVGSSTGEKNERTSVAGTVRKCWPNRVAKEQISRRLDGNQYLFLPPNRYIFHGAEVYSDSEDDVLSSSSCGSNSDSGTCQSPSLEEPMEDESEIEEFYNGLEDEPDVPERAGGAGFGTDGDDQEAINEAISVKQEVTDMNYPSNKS

What follows are compounds tested against NAD-dependent deacetylase Sirtuin 1 (human, UniProt Q96EB6) (assay: primary screen, delta tm). Conditions: 10 µM.
Design: single well (n = 1)
Procedure: A total of 3,192 compounds extracted from the proposed lists were first screened by thermal shift assay (TSA), which determined a melting temperature shift (ΔTm) of Sirtuin 1 upon the addition of a test compound at a concentration of 10 µM (n = 1) with primary hit criteria of ΔTm > 0.45 K or ΔTm < −1.5 K. Primary hits (48 compounds) were retested in the same assay at three concentrations (5, 10, 20 µM, n = 4) for hit confirmation and for dose-dependency check. Secondary hits (41 compounds) were checked their selectivity for Sirtuin 1 based on counterscreening on unrelated protein targets (bovine carbonic anhydrase (CA) and recombinant SH2 domain of hABL1 kinase (ABL1)) at three different concentrations (5, 10, 20 µM, n = 4), which yielded 38 hit compounds, hereafter referred to as TSA hits. The TSA screening above was conducted in the absence of NAD+.

Structure (SMILES) | TSA(without NAD+) / Primary screening (TSA) / delta Tm (K)
CC(=O)N(c1nn(CN2CCN(c3ccc(C(N)=O)cn3)CC2)c(=S)s1)C1CC1 | -0.23
O=C1CCc2c(OCc3cc(=O)n4ccccc4n3)cccc21 | -0.17
Cc1ccc(-c2cc(C(=O)Nc3ccc(C(N)=O)cc3)c3ccccc3n2)c(C)c1 | -0.22
O=C(CCl)c1c(-c2ccccc2)[nH]c2ccccc12 | -0.04
COC(=O)c1cc(Br)ccc1NC(=O)c1cccc(S(=O)(=O)N(C)c2ccc(C)cc2)c1 | -0.01
COc1cccc(-c2nc(CSc3nnc(CN4CCCCC4)n3-c3ccc(F)cc3)cs2)c1 | -0.11
COc1cccc(C(=O)C2=C(O)C(=O)N(CCCN3CCOCC3)C2c2ccccc2)c1 (stereo not shown) | -0.11
CC(C(=O)NC(c1ccccc1)C1CC1)n1cnc2ccccc21 (stereo not shown) | -0.08
O=C(Oc1ccc2oc3ccccc3c2c1)C1CC1 | -0.17
CC(C)c1noc2ncc(C(=O)Nc3cc(C(N)=O)ccc3N3CCCC3)cc12 | 0.06
O=C(O)[C@@H]1C[C@H]1C(=O)O | -0.07
O=C(CCN1C(=O)NC2(CCCCC2)C1=O)NC1C2CC3CC(C2)CC1C3 (stereo not shown) | 0.07
O=c1oc2ccc3ccccc3c2cc1-c1nc2ccccc2[nH]1 | -0.21
O=S1(=O)CCC(CSc2nnc(NCC3CCCO3)s2)CC1 (stereo not shown) | -0.18
Cc1ccc(N2C(=O)CN=C2S)cc1 | -0.14
O=C(O)c1ccc2[nH]c3c(c2c1)CCCCC3 | -0.02
O=S1(=O)CCC(N2CCN(c3ncnc4c3oc3ccccc34)CC2)C1 (stereo not shown) | -0.11
NC(=O)c1cc(NC(=O)c2nn(-c3ccc(F)cc3)c3c2CCCC3)ccc1Cl | -0.04
COCCNc1nnc(SCc2cc(=O)oc3c(C)c(O)ccc23)s1 | -0.74
O=C1NC(=O)C2(CCN(C(=O)C34CC5CC(CC(Br)(C5)C3)C4)CC2)N1 | -0.08
Cc1cccc(C(=O)Nc2ccccc2Oc2ccccc2)c1 | -0.13

Filtered by structure, those above containing a Cl atom.
Structure (SMILES) | TSA(without NAD+) / Primary screening (TSA) / delta Tm (K)
O=C(CCl)c1c(-c2ccccc2)[nH]c2ccccc12 | -0.04
NC(=O)c1cc(NC(=O)c2nn(-c3ccc(F)cc3)c3c2CCCC3)ccc1Cl | -0.04

The results go on.

Structure (SMILES) | TSA(without NAD+) / Primary screening (TSA) / delta Tm (K)
Cc1cccc(NC(=O)CN2CCN(C(=O)c3ccccc3Oc3ccccc3)CC2)c1C | -0.12
NC(=O)C1CCN(c2cc(N3CCCC3)ncn2)C1 (stereo not shown) | -0.02
CC(CNC(=O)c1cccc(Nc2ncccn2)c1)N1CCOCC1 (stereo not shown) | 0.13
Cc1ccc(N(C)S(=O)(=O)c2cccc(C(N)=O)c2)cc1 | -0.11
CC(OC(=O)CC(NC(=O)OC(C)(C)C)C1CC1)c1cnc2ccccc2c1 (stereo not shown) | -0.12
CC(C)C(C)Nc1ncnc2ccsc12 (stereo not shown) | -0.22
Cc1ccc(C23CC4CC(CC(C(=O)OCC(=O)NC(=O)NCc5ccccc5)(C4)C2)C3)cc1 | 0.29
Cc1cc(N2CCN(c3ncc(C(F)(F)F)cc3Cl)CC2)n2ncnc2n1 | 0.22
COc1cccc(C2C(C(=O)c3ccc(F)cc3)=C(O)C(=O)N2CCCN2CCOCC2)c1OC (stereo not shown) | -0.03
O=C1NC(=S)NC(=O)C1=Cc1cc2ccccc2[nH]c1=O | 0.07
O=C1/C(=C\c2ccc(Br)cc2F)Cc2ccccc21 | -0.28
NCC1(O)CCC1 | -0.18
CCOC(=O)N1CCN(CCC(=O)Nc2ccc(C(C)=O)cc2)CC1 | -0.03
NC(=O)c1ccccc1NC(=O)C1CC1 | -0.13
O=C(COC(=O)Cc1coc2cc(O)ccc12)Nc1cccc2ccccc12 | -0.08
COc1ccc(N(C)S(=O)(=O)c2cccc(C(=O)NNC(=O)OC(C)(C)C)c2)cc1 | -0.21
O=C(CSc1nnc(NCc2ccco2)s1)Nc1nc2c(F)c(F)c(F)cc2s1 | 0.08
O=C(NNC1c2ccccc2-c2ccccc21)c1ccc2ccccc2n1 | -0.18
COC(=O)/C=C1/NC(=O)CS1 | -0.03
CCOC(=O)c1cn[nH]c1N | -0.13
COC(=O)c1ccc2[nH]c(=O)[nH]c2c1 | -0.18

Structure (SMILES) | TSA(without NAD+) / Primary screening (TSA) / delta Tm (K)
c1ccc2c(c1)oc1c(N3CCCC3)ncnc12 | -0.11
NC(=O)CC(Nc1ncncc1Br)C1CCCCC1 (stereo not shown) | -0.23
Cc1[nH]c2ccccc2c1C1CCN(C(=O)c2n[nH]c3c2CCC3)CC1 | 0.15
Cn1cc(S(=O)(=O)NCC2CCN(c3ccc(F)cc3)C2)cc1C(=O)O (stereo not shown) | -0.08
CS(=O)(=O)Nc1ccc(C(=O)/C=C/c2ccc3c(c2)CCO3)cc1 | -0.05
CCc1cc2c(N3CCC(C(N)=O)CC3)nc(C)nc2s1 | -0.22
Cc1ccc(-c2nnc(NC(=O)COc3cc(C)cc(C)c3)[nH]2)cc1 | -0.08
CC(=O)Nc1ccc(CNCc2ccccc2CN2CCCC2)cc1 | -0.12
CCOCC(NC(=O)N1CCN(C(=O)c2cc3ccccc3[nH]2)CC1)C(C)C (stereo not shown) | -0.11
COc1ccccc1NC(=O)COc1ccc(C(=O)OCC(=O)NC23CC4CC(CC(C4)C2)C3)cc1OC | 0.08
CC1CN(C(=O)/C=C/c2ccc(C(=O)O)cc2)CC(C)(C)O1 (stereo not shown) | 0.16
Cc1nc(/C=C/C(=O)NC(C)C(=O)NCc2ccco2)cs1 (stereo not shown) | -0.02
CC(N)C(N)=O (stereo not shown) | -0.23
O=C(Cc1ccc(-c2ccccc2)cc1)Nc1cccc(S(=O)(=O)N2CCOCC2)c1 | 0.07
N#Cc1c(NC(=O)c2cnc3ccccc3n2)sc2c1CCCCC2 | -0.18
COC1CCCC1NC(=O)Cc1sc(S)nc1C (stereo not shown) | -0.22
Cc1ccc(N(C)S(=O)(=O)c2cccc(C(=O)OCc3nnsc3Cl)c2)cc1 | -0.05
Cn1ccc(NC(=O)C2CC(=O)N(c3ccc4c(c3)OCO4)C2)n1 (stereo not shown) | -0.13
COc1ccc(CN2C(=O)/C(=C/NNC(=O)CC34CC5CC(CC(C5)C3)C4)c3ccccc3C2=O)cc1 | 0.09
